Earlier results on one molecule are cited in patent US20060121117A1, “Anti-angiogenic compositions and methods of use” (ANGIOTECH PHARMACEUTICALS, INC., priority 1993, published 2006).

The conditions of the data set: cited from earlier work.

Take `CC(=O)O[C@H]1C(=O)[C@@]2(C)[C@H]([C@H](OC(=O)c3ccccc3)[C@]3(O)C[C@H](OC(=O)[C@H](O)[C@@H](NC(=O)c4ccccc4)c4ccccc4)C(C)=C1C3(C)C)[C@]1(OC(C)=O)CO[C@@H]1C[C@@H]2O` [Paclitaxel]: the solubility in water result was “insoluble in water”.
